{"source": "PubChem BioAssay AID1508600", "about": "(Functional Genomics Laboratory (NCATS/FGL), 2020)", "note": "Among all 53,000 sequences or so, about 3,700 (7%) were called active.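 Rule for the calls: active = gene knockdowns whose robust z-score for IL-1 alpha signal is at least 2 or at most -2, so actives lie on both sides; inactive = the rest.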 This is one part of the list."}
{"assay": "Components of the Cytosolic LPS Sensing Pathway: Gene Identification via Genome-wide siRNA Screen;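 note: robust z of the log signal after scaling to non-targeting control siRNA wells of the plate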", "details": "RAW264.7 macrophages, IL-1a HTRF, actives lie on both sides, screened at 100 nM (by protocol), cells primed 5 h with Pam3CSK4 first", "summary_of_the_method": "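IL-1a HTRF of supernatants after 24 hour LipidA transfection of Pam3CSK4-primed (5 hours) RAW264.7 cells, 48h post-siRNA transfection (100 nM). Scores: percent of plate negative-control median, then log-based robust z-score.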"}
{"sequence": "GGCUAAGAUAAGAAAUGCUTT against Mllt11", "z-score": "inactive: -1.38"}
{"sequence": "GCAACCUUGACGUAAAUGUTT against Bsg", "z-score": "inactive: -0.0185"}
{"sequence": "GGGAGCUCCAUUUAAAUUATT against Cnot6", "z-score": "inactive: -0.516"}
{"sequence": "CCUCAAUGACCUUAAAGAATT against Sh3glb1", "z-score": "inactive: -0.939"}
{"sequence": "CACCCUUCUCUGAUUGUCUTT against Lce3b", "z-score": "inactive: 1.62"}
{"sequence": "GCAGCAGGAAGGAUCAUUCTT against Ly6h", "z-score": "inactive: -0.0488"}
{"sequence": "GGAUCUCAAAGAUACAGGATT against Mcpt1", "z-score": "inactive: 0.375"}
{"sequence": "CCUCUUUCGACAAGAGCUCTT against Atp1a3", "z-score": "inactive: 0.904"}
{"sequence": "CCAAUGUGGUCAAGGUAAUTT against AI987944", "z-score": "inactive: 0.696"}
{"sequence": "GGUGGGAUGAUCAUAAGUUTT against Ppnr", "z-score": "inactive: -0.0428"}
{"sequence": "GGAAGCUCUUAAAAGGUUGTT against Hdhd2", "z-score": "inactive: 0.226"}
{"sequence": "CCUGUAUCCGUGACUUUUGTT against Skor1", "z-score": "inactive: -0.358"}
{"sequence": "CGACAUCAGUUAAAAACGATT against Aebp2", "z-score": "inactive: -0.0636"}
{"sequence": "GCACAUAUAAAGUUGGAAATT against Ehbp1", "z-score": "inactive: 1.06"}
{"sequence": "GGCAAUCGCUUUGAGCCAUTT against Hnrnpm", "z-score": "inactive: -1.09"}
{"sequence": "CGGACUAAGUUUCAAAUCGTT against Pcdha2", "z-score": "inactive: 0.28"}
{"sequence": "GGAACUGUGUGACUACUUUTT against Necab2", "z-score": "inactive: 0.18"}
{"sequence": "CCGCGUGUUCCUUCUGAUUTT against S1pr3", "z-score": "inactive: 1.43"}
{"sequence": "GAUCCGUAUUACCUAUUGUTT against Bex1", "z-score": "inactive: 0.603"}
{"sequence": "GGAGAAACAGAAGUAUUGATT against Nsa2", "z-score": "inactive: -0.559"}
{"sequence": "CGAUGUGAUGAUUUAGAAGTT against Itgb1", "z-score": "inactive: -0.631"}
{"sequence": "GGAACCUAUGGAAGGCGUATT against Ino80b", "z-score": "active: 2.64"}
{"sequence": "GGACUAAGUGGACGGUUUATT against Tmx1", "z-score": "inactive: -0.485"}
{"sequence": "GGAUUGUGAUUUUCAUUGATT against Lpar6", "z-score": "inactive: 0.00533"}
{"sequence": "AGAGGCUGGUAAGAAAAAATT against Olfr130", "z-score": "inactive: -0.565"}
{"sequence": "GCACUGAGCAAGAAUCCUGTT against Phb2", "z-score": "inactive: 0.184"}
{"sequence": "CCCAUUAAAUUCGAUAAGATT against C1qtnf9", "z-score": "inactive: 0.0299"}
{"sequence": "GGGAAGCUAUCUGAAUGCGTT against Otoa", "z-score": "inactive: 1.14"}
{"sequence": "GGGACUUGUUGAGUUUAUATT against Ro60", "z-score": "inactive: -0.276"}
{"sequence": "GGGCAUCCUAUACAAGAAGTT against Sbf1", "z-score": "inactive: -0.538"}
{"sequence": "CCAUCUAGUGCUGUAUUUCTT against Rnf215", "z-score": "inactive: 0.67"}
{"sequence": "GGAUACAAUCCUUUUGGAUTT against Dnajb1", "z-score": "inactive: 0.205"}
{"sequence": "GGACAUUGAGGACUAUGACTT against Grk1", "z-score": "inactive: -1.38"}
{"sequence": "CCUAUGAAUUGGCUAUCAUTT against Slc47a1", "z-score": "inactive: -0.246"}
{"sequence": "GAGUGUCCGAUAGACCGUUTT against Rbm4", "z-score": "inactive: -0.429"}
{"sequence": "CCGAAGUCAAUGAAGCUCUTT against Gcsh", "z-score": "active: -2.13"}
{"sequence": "GGCGGAUCAGCUGUAUAAGTT against Pdha1", "z-score": "inactive: 0.0277"}
{"sequence": "GGAAACUUAAGCAAAUUCUTT against Gprc6a", "z-score": "active: 3.11"}
{"sequence": "GUGACCACUCUGCCAAUUGTT against Olfr1255", "z-score": "inactive: 1.24"}
{"sequence": "GGUUGCAUUUUUGGAUUUATT against Fbxw2", "z-score": "inactive: 1.64"}
{"sequence": "CCAAUUGAGAAUAAACUCATT against Gnrhr", "z-score": "inactive: 1.79"}
{"sequence": "UACGGGCUGAACAUGUGCCTT against Rps29", "z-score": "inactive: 0.781"}
{"sequence": "GGAAGGCAUUGAAGCUGAATT against Armt1", "z-score": "inactive: 0.447"}
{"sequence": "GCCAUAUUGAGGUGAAAGATT against Tnc", "z-score": "inactive: 0.775"}
{"sequence": "GCAAGAACAGCCCUUUCACTT against Ncf4", "z-score": "inactive: -0.165"}
{"sequence": "GGGUCCUAAACAGACCAGATT against Erv3", "z-score": "inactive: -0.49"}
{"sequence": "GGAACUGGGUCUUCUUCAUTT against Csnk1g3", "z-score": "inactive: -0.206"}
{"sequence": "GGAUAUGGGAAUGAAAGCATT against Nyap2", "z-score": "active: -2.21"}
{"sequence": "GGGAGAUGGACAAGGUUACTT against Teddm2", "z-score": "inactive: 0.697"}
{"sequence": "GCUCUACCCAAUCAAGACCTT against Asb14", "z-score": "inactive: 0.31"}
{"sequence": "GCACAAAUCUGGUAAGUCATT against Gtf2h1", "z-score": "inactive: 0.474"}
{"sequence": "GUGAGCAGUGCUUUGAUCUTT against Tff2", "z-score": "inactive: -0.815"}
{"sequence": "CCCACCUUUGUCAACCAAATT against Pcdhga10", "z-score": "inactive: 0.0214"}
{"sequence": "GGUCAAUUGGAAAUAAGAATT against Mfsd14a", "z-score": "inactive: 0.0163"}
{"sequence": "GCCAACUACGUAUAUACAUTT against 4921511C20Rik", "z-score": "active: 2.41"}
{"sequence": "GCUUCUACGGCAAAUGAAUTT against Cdr2", "z-score": "inactive: -0.427"}
{"sequence": "GGAUUUUUAGUGUUUGACATT against Rab39", "z-score": "inactive: -1.52"}
{"sequence": "CCAAGUUGGCUUUAAUUGCTT against Abcb4", "z-score": "inactive: -0.158"}
{"sequence": "CGCAUGCUGGUAAAACGGATT against Frem1", "z-score": "inactive: -0.303"}
{"sequence": "GGACUGAGAACCAGAUCAUTT against Rnaseh2c", "z-score": "inactive: 0.851"}
{"sequence": "CCAGAUAAUAAUUUGGAUGTT against Dhx9", "z-score": "inactive: 0.0852"}
{"sequence": "GCCACUCAAUAAUCGCUGUTT against Car10", "z-score": "inactive: 0.42"}
{"sequence": "GCAGUGAAUGAACCGCUGUTT against Cd59a", "z-score": "inactive: 0.864"}
{"sequence": "CCCUGUGACCAGGAUUACATT against Stap2", "z-score": "inactive: -0.545"}
{"sequence": "CCUGAAGAUGAAUUAUUGCTT against Plg", "z-score": "inactive: 0.551"}
{"sequence": "GGGCAGAGGCAUUUCUGUATT against Psg23", "z-score": "inactive: 1.76"}
{"sequence": "GGCAAUAGCUUUACCUAUGTT against Lzts2", "z-score": "inactive: 0.669"}
{"sequence": "GCCAUAGGACCUAAAAGACTT against B3galnt2", "z-score": "inactive: -1.6"}
{"sequence": "GGUCUCUGAAGACAAAAAATT against Sema4d", "z-score": "inactive: -0.252"}
{"sequence": "GGCCAUCGAACUCAAUCUCTT against Lrrc57", "z-score": "inactive: 0.243"}
{"sequence": "GGGAAAAGAUCGACAAAGATT against Plk2", "z-score": "inactive: -0.217"}
{"sequence": "GUGUUCAGCACCCUGGCAATT against Klra3", "z-score": "inactive: 0.757"}
{"sequence": "GGCUCCUGUACCACCAAAATT against Wnt7b", "z-score": "inactive: -0.707"}
{"sequence": "GGGAAUUUCAGGCUAUAUUTT against Taf2", "z-score": "inactive: 1.13"}
{"sequence": "GCAUUCAUCAAAUUUACAGTT against Prrg4", "z-score": "inactive: -0.67"}
{"sequence": "GGUCACUAUACCUGGUAGATT against Aire", "z-score": "inactive: 1.26"}
{"sequence": "CCCAUUACCUGAUCAGUGGTT against Zc4h2", "z-score": "inactive: 0.946"}
{"sequence": "GUCCCAGUACCUCAUUUUUTT against Vmn1r18", "z-score": "inactive: 1.65"}
{"sequence": "GGUAAGAGAGGUUUUUUCCTT against Synpo2l", "z-score": "inactive: 0.0886"}
{"sequence": "GGGAGAGUCAAACAGAGCATT against Dio1", "z-score": "inactive: -0.378"}
{"sequence": "GGUGAAGCCAAGAAUAGCATT against Abraxas1", "z-score": "inactive: -1.46"}
{"sequence": "GCAGCGGUGAACAAUAUAATT against 1700123K08Rik", "z-score": "inactive: 0.676"}
{"sequence": "GCCCAAGCUUUUAUCAAGATT against Frmd4b", "z-score": "inactive: 1.48"}
{"sequence": "GGAUGAUAUGGUAACCUGCTT against Trim68", "z-score": "inactive: -0.46"}
{"sequence": "GCACGUACGAAGCAAGUAATT against Nlrp1a", "z-score": "inactive: -0.0277"}
{"sequence": "GCCUCUGUCAAGUCUUGGATT against Ftl1", "z-score": "active: -2.17"}
{"sequence": "GCUGUAUCUUGUGAACAGCTT against Rad9b", "z-score": "inactive: 0.393"}
{"sequence": "GGCCUACAUUUUAAUUCAGTT against Tmem132c", "z-score": "inactive: -0.167"}
{"sequence": "GGGUAAUUUUUCACAACAGTT against 1110051M20Rik", "z-score": "inactive: -0.645"}
{"sequence": "GGAAGCAGAUGACUGGGAATT against H2-T10", "z-score": "inactive: 0.841"}
{"sequence": "CCUACUCACAGUAAUUAAGTT against Trpm8", "z-score": "inactive: 0.398"}
{"sequence": "GGAGGAAUCGCACUAUAUUTT against Plppr4", "z-score": "inactive: 0.956"}
{"sequence": "GGAGUUUAUGAAAUUCAACTT against Fcgrt", "z-score": "inactive: 1.34"}
{"sequence": "GGACAUAUUCCUGAAUGGCTT against Bco2", "z-score": "inactive: 0.663"}
{"sequence": "GGGACUCAUUGCUAACUCATT against Tnpo3", "z-score": "inactive: 0.344"}
{"sequence": "GGAAUUUUCUCGAUUUCACTT against Pde6b", "z-score": "inactive: 1.13"}
{"sequence": "CCCUGAUAGUUGCUUGUACTT against E330021D16Rik", "z-score": "inactive: 0.523"}
{"sequence": "GUGUAUCUUAUGCAAUGAUTT against Olfr582", "z-score": "inactive: 0.504"}
{"sequence": "GGGACUUGUCAGGUUUCUATT against Cptp", "z-score": "inactive: 0.2"}
{"sequence": "CCAUUAAAACCACUAUCUGTT against Aftph", "z-score": "inactive: 0.467"}
{"sequence": "CCAGACGCGUAACUGCUACTT against Cox6b2", "z-score": "active: 3.26"}
{"sequence": "GGUGUAAAGAAAACAUUCCTT against Ctcf", "z-score": "inactive: -1.03"}
{"sequence": "GCUUGCCAUCGACAACCUGTT against Bnip1", "z-score": "inactive: 0.806"}
{"sequence": "GGCGUAUACCGGGAAUCCUTT against Ndrg1", "z-score": "inactive: -0.505"}
{"sequence": "GGAAUGACAUUGCUACUGUTT against Zdhhc16", "z-score": "inactive: -1.88"}
{"sequence": "GGAAAUAGAGGUUUGUUCATT against G6pc2", "z-score": "inactive: 1.58"}
{"sequence": "CGAAUACCUGAAGUGCAAATT against Art3", "z-score": "inactive: 0.454"}
